The assay can be described thus: qHTS Assay for Lipid Storage Modulators in Drosophila S3 Cells.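 As to cell number change: cells counted by Cell Tracker Red CMTPX staining in the red channel.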 As to conditions: BODIPY lipid droplet fluorescence, 18-24 h; for cell number change: measured here: cell count max response, cells fed with added oleic acid. An outline of the steps: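 Drosophila S3 cells loaded with oleic acid (400 uM, as added) and compounds at several concentrations; lipid droplets imaged by 488-nm laser-scanning cytometry, 500–530 nm intensity and object ratio to cell channel. Percent activity normalized to 20 uM Triacsin C.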
In general terms: Quantitative high-throughput screening tests each substance at several concentrations.

The mark [1] stands for this setting: measured here: cell number channel AC50, cells fed with added oleic acid.
[2] abbreviates: measured here: lipid fluorescence (Fed channel) AC50, cells fed with added oleic acid.

SMILES strings stand for the structures. The list shows a part of the results. The main result of the screen is listed elsewhere. These columns were measured beside it and carry no call. Most of these compounds were active or inconclusive in the main read-out, so they are no random draw. Words in brackets tell the shape of the fitted curve; partial curves, single points and poor fits give uncertain potencies.

Among the data in PubChem BioAssay AID2685 (National Center for Advancing Translational Sciences (NCATS), 2010) are cell number change and AC50 values, retold here.

In general, AC50 refers to the concentration at which the activity in the assay is half-maximal. A lower AC50 goes with activity at low concentration.

On to `O=C(CC12CC3CC(CC(Br)(C3)C1)C2)NC1=NCCS1`, for which the cell number change is -33.9%. For the same compound, under setting [1], the AC50 was 0.00517 µM [falling, full curve, poor fit]. For the same compound, the AC50 under setting [2] is 2.06 µM [falling, full curve].

With `O=C(NCCc1ccccc1)c1cccc([N+](=O)[O-])c1`, the cell number change turned out to be 45.3%. Also, the AC50 under setting [1] is 32.6 µM [rising, single point].

As to `CCC(=O)Nc1nnc(CSCc2ccc(F)cc2)s1`, the half-maximal activity concentration (AC50) under setting [1] is 0.082 µM [rising, full curve, poor fit].

Turning to `CC1CC(C)CN(c2oc(Cc3ccccc3)nc2C#N)C1` (stereo not given), the cell number change was -12.7%. Further, the half-maximal activity concentration (AC50) under setting [2] was 6.51 µM [rising, single point].

Regarding `NC(=O)CNC(=O)[C@@H]1CC2(CC(c3ccccc3)=NO2)CN1C(=O)c1ccc(Br)cc1` (stereo not given in full), the cell number change is -7.58%.

`COc1cccc(-c2nnc(SCCOc3ccc4c(C)cc(=O)oc4c3)o2)c1`: the cell number change is 7.56%. Further, under setting [2], the concentration at half-maximal activity (AC50) was 6.51 µM [rising, single point].

As for `C[C@H](N)C(=O)N1CCC(C(=O)N[C@@H](Cc2ccccc2)C(=O)Nc2ccc(F)cc2)CC1`, the cell number change came to 11.1%. In addition, under setting [2], the concentration at half-maximal activity (AC50) was 5.17 µM [rising, full curve, poor fit].

Regarding `O=C(NCCc1c[nH]c2ccccc12)/C(=C\c1cccnc1)NC(=O)c1ccco1`, the cell number change is 6.43%. For the same compound, under setting [2], the AC50 is 1.3 µM [rising, partial curve].

As to `O=S(=O)(Nc1ccccn1)c1ccc(C2CCCCC2)cc1`, the cell number change is -40.9%. The concentration at half-maximal activity (AC50) under setting [1] was 29.1 µM [falling, single point].

In the case of `CCOC(=O)c1c(NC(=O)C2CCCCC2)sc2c1CCN(C(C)C)C2`, the cell number change is -17.9%. In addition, under setting [2], the AC50 is 16.4 µM [falling, single point].

In the case of `Cc1ccc(S(=O)(=O)C2(S(=O)(=O)c3ccc(C)cc3)CCCC2)cc1`, the cell number change is -33.4%. For the same compound, under setting [1], the AC50 is 1.16 µM [falling, full curve, poor fit].

Consider `Cc1ccc2nc(NCC(=O)NN)nc(-c3ccccc3)c2c1`, for which the cell number change came out at 2.39%.

In the case of `O=C(N/N=C/c1cccc(Br)c1)c1ccc(Cn2cc(Br)cn2)o1`, the AC50 is 0.58 µM [rising, single point] under setting [1] and 13 µM [rising, partial curve] under setting [2].

Consider `Cc1ccc(Sc2ccc(NC(=O)CCN3C(=O)NC4(CCCC4)C3=O)cc2)c(C)c1`, for which the cell number change was determined as 14.4%. In addition, under setting [1], the half-maximal activity concentration (AC50) was 2.59 µM [falling, partial curve].

For the compound `CCN(CC(=O)Nc1c(F)cccc1F)C(=O)C1(c2ccccc2)CC1`, the cell number change worked out at 29.9%. Under setting [2], the AC50 is 23.1 µM [rising, single point].

As to `COC(=O)[C@H](C)NC(=O)Nc1ccccc1F`, the cell number change is -16.7%. The half-maximal activity concentration (AC50) under setting [2] is 23.1 µM [falling, partial curve, poor fit].

On to `COc1cccc(NC(=O)CN(C)C(=O)C2=COCCO2)c1`, for which the cell number change was -22.5%.

As to `NC1=NC(=O)C(Cc2cccc(Cl)c2)S1` (stereo not given), the cell number change is -49%. Moreover, under setting [1], the half-maximal activity concentration (AC50) is 4.11 µM [falling, full curve].

For `COc1ccc(C)cc1S(=O)(=O)N1CCC(C(=O)NCCc2ccccc2)CC1`, under setting [2], the half-maximal activity concentration (AC50) is 2.06 µM [rising, partial curve, poor fit].

Consider `c1ccc(CCc2nc(-c3ccccc3)no2)cc1`, for which, under setting [2], the AC50 was 29.1 µM [falling, single point].

On to `CCOC(=O)C(C)NC(=O)C(NC(=O)C1CCC(CC)CC1)C(C)C` (stereo not given), for which the cell number change was -33.9%. Moreover, the half-maximal activity concentration (AC50) under setting [1] was 6.51 µM [falling, single point].

For `Cc1c(CCC(=O)O)c(=O)oc2cc(OCc3ccc(Br)cc3)ccc12`, the cell number change came to 10.8%. Further, the AC50 under setting [2] was 6.51 µM [rising, single point].

Consider `Cc1ccc(N(C)C(=O)n2cnc3ccccc32)cc1`, for which the cell number change was determined as 121%. Under setting [1], the AC50 was 6.51 µM [falling, single point]. The AC50 under setting [2] is 4.61 µM [falling, single point].

For `CC(C)(C)c1csc(NC(=O)c2ccc(Br)o2)n1`, the cell number change is -40.4%. Besides, under setting [1], the AC50 is 8.2 µM [falling, partial curve]. For the same compound, the AC50 under setting [2] is 6.51 µM [falling, full curve].

On to `CCOC(=O)c1cc(-c2ccccc2)sc1NC(=O)C(C)Sc1nnc(N)s1` (stereo not given), for which the cell number change was -35.6%. The AC50 under setting [1] was 0.164 µM [falling, full curve, poor fit].

As to `Cn1c(Cn2cnc3ccccc32)nc2ccccc21`, the cell number change was -39.8%. In addition, under setting [1], the concentration at half-maximal activity (AC50) was 32.6 µM [falling, single point].

In the case of `O=C(NCCN1CCOCC1)c1cc(-c2ccc(Cl)s2)nc2ccccc12`, the cell number change was 20%.

With `O=C(NCCc1ccccc1)/C(=C\c1ccc([N+](=O)[O-])cc1)NC(=O)c1ccccc1`, the cell number change is -23.3%. For the same compound, the half-maximal activity concentration (AC50) under setting [2] is 7.31 µM [falling, partial curve].

Turning to `Cc1nn(C)c(=O)n1-c1ccc(OCc2ccccc2)cc1`, the cell number change came to 63%. For the same compound, under setting [1], the AC50 is 16.4 µM [rising, single point]. For the same compound, the concentration at half-maximal activity (AC50) under setting [2] is 16.4 µM [rising, partial curve].

As for `CC1=CCC2C(=O)N(c3ccc(OC(=O)c4ccco4)cc3)C(=O)C2C1` (stereo not given), the cell number change turned out to be 2.85%. Also, under setting [2], the half-maximal activity concentration (AC50) is 0.00517 µM [falling, full curve, poor fit].

For the compound `CCn1c(SCC(=O)c2c(N)n(C3CC3)c(=O)[nH]c2=O)nnc1-c1ccoc1C`, the cell number change is 11.8%. Under setting [2], the AC50 is 1.16 µM [rising, full curve, poor fit].

As to `CCOCN(C(=O)Cn1c(CO)nc2ccccc21)c1c(C)cccc1CC`, the cell number change was determined as 1.82%. Further, the AC50 under setting [2] is 0.731 µM [rising, single point].

Regarding `O=C(NCCCn1ccnc1)c1cc2c(s1)CCCCC2`, the cell number change is 14.8%. Also, under setting [2], the AC50 is 6.51 µM [rising, single point].

As for `O=C1C2CC=CCC2C(=O)N1CC(=O)N(Cc1ccccc1)C1CCS(=O)(=O)C1` (stereo not given), the cell number change was -6.82%. In addition, the AC50 under setting [2] is 1.03 µM [falling, full curve, poor fit].

Take `Cc1cc(C)c(C(=O)N(C)C2CCCN(Cc3ccccc3F)C2)o1` (stereo not given): the cell number change was determined as 7.65%.

Take `COc1ccc(-c2cn(CCC(=O)O)c(-c3ccncc3)n2)cc1`: the cell number change amounted to 5.94%. Further, the AC50 under setting [2] is 0.00461 µM [rising, full curve, poor fit].

For the compound `Cc1cc2nnc(SCC(=O)NCC(c3ccccc3)N(C)C)n2c2ccccc12` (stereo not given), the cell number change turned out to be 18.2%. In addition, under setting [2], the half-maximal activity concentration (AC50) is 29.1 µM [falling, single point].

As for `COC(=O)C1C(=O)C=C(Nc2ccc(F)cc2)CC1c1ccc(OC)cc1` (stereo not given), the cell number change is 7.45%. Also, under setting [2], the AC50 was 1.46 µM [rising, full curve, poor fit].

Take `CSCC[C@@H](C(=O)Nc1ccc2c(c1)OCCO2)N1Cc2ccccc2C1=O`: the cell number change was 2.41%.

For `C=CCn1c(=O)c(C(=O)Nc2ccc(C)cc2)c(O)c2ccccc21`, the cell number change worked out at 17.3%. Moreover, the concentration at half-maximal activity (AC50) under setting [2] is 9.2 µM [rising, partial curve, poor fit].

For `Cc1nn(C)c(C(=O)NNC(=S)Nc2ccc(Cl)cc2)c1[N+](=O)[O-]`, the cell number change was -19.4%.

In the case of `COc1ccc(OC)c(NC(=O)CN(C)CC(=O)Nc2ccccc2Br)c1`, the AC50 under setting [2] is 23.1 µM [rising, single point].

Take `CCc1ccc(NC(=O)COC(=O)c2nc3nc(C)cc(C)n3n2)cc1`: the cell number change was 19.8%. Moreover, under setting [1], the half-maximal activity concentration (AC50) is 0.0651 µM [rising, full curve, poor fit]. For the same compound, the AC50 under setting [2] was 0.058 µM [rising, full curve, poor fit].

For the compound `Cc1csc(NC(=O)c2ccc(-c3ccc(Cl)cc3Cl)o2)n1`, the cell number change was -48.1%. Besides, the half-maximal activity concentration (AC50) under setting [1] was 18.4 µM [falling, single point]. Also, under setting [2], the AC50 was 32.6 µM [falling, single point].

Turning to `C#CCOCCOCCOCCNc1nc(N2CCN(C(=O)CCCCCCCCCCNC(=O)[C@H](CO)n3cc(CCCSC)nn3)CC2)nc(N2CCN(C(=O)CCCCCCCCCCNC(=O)[C@H](CCCCN)n3cc(C[C@@H](C)CC)nn3)CC2)n1`, the cell number change is -82.3%. Besides, the AC50 under setting [1] is 10.3 µM [falling, partial curve]. Further, the AC50 under setting [2] is 11.6 µM [falling, partial curve].

For the compound `COc1ccc(C(=O)NCc2nnc(SCC(=O)NC3CCCCC3)o2)cc1`, the cell number change is -15%. In addition, the half-maximal activity concentration (AC50) under setting [2] was 29.1 µM [falling, single point].

As for `CCn1ccnc1CNC(=O)CC1C(=O)NCCN1Cc1ccccc1F` (stereo not given), the cell number change is -15.1%. Moreover, under setting [2], the half-maximal activity concentration (AC50) is 0.116 µM [falling, full curve, poor fit].

For the compound `O=C(CSC1=Nc2ccccc2C2=NC(c3ccccc3)C(=O)N12)NCC1CCCO1` (stereo not given), the cell number change is -16.4%. For the same compound, the half-maximal activity concentration (AC50) under setting [2] is 4.11 µM [rising, single point].

Consider `CS(=O)(=O)N1CCC(C(=O)Nc2cc(Cl)cc(Cl)c2)CC1`, for which the cell number change stood at 21.7%. In addition, under setting [1], the concentration at half-maximal activity (AC50) was 6.51 µM [rising, single point].

`CCn1c(SCC(=O)N=Nc2c(O)[nH]c3ccccc23)nc2ccccc21`: the cell number change was 10.8%.

Regarding `COc1ccc(S(=O)(=O)Oc2ccc3c(c2)O/C(=C\c2cccnc2)C3=O)cc1`, the cell number change came to 3.59%. Moreover, under setting [2], the AC50 was 5.8 µM [rising, full curve].

On to `COc1cccc(N2CCN(c3c(C#N)c(C(F)(F)F)nn3C)CC2)c1`, for which the cell number change was found to be 22%. Further, the AC50 under setting [2] is 13 µM [falling, partial curve, poor fit].

On to `CC1(C)C/C(=N\NC(=S)Nc2ccccc2F)c2cc(O)ccc2O1`, for which the cell number change was -43.9%. For the same compound, the concentration at half-maximal activity (AC50) under setting [1] was 29.1 µM [falling, single point].

Regarding `C/C=C/COC(=O)c1[nH]c2c(c1C)C(=O)CC(c1ccc(N(C)C)cc1)C2` (stereo not given), the AC50 is, setting by setting: under setting [1], 1.3 µM [rising, partial curve]; under setting [2], 1.64 µM [rising, partial curve].

In the case of `Cc1cc(C(=O)NC2CCCc3ccccc32)no1` (stereo not given), the cell number change amounted to 7.23%. Also, the concentration at half-maximal activity (AC50) under setting [2] was 0.366 µM [rising, full curve, poor fit].

Consider `CCC(=O)Nc1ccc(N2CCCCC2)c(C(=O)Nc2ccccc2C)c1`, for which the cell number change came to 33.3%. Moreover, under setting [1], the half-maximal activity concentration (AC50) is 2.06 µM [rising, full curve]. Further, the concentration at half-maximal activity (AC50) under setting [2] was 3.66 µM [rising, partial curve].

As to `COc1ccc(C(=O)C2CCN(C(=O)Nc3ccc(C)cc3)CC2)cc1`, the cell number change is 13.9%. In addition, the half-maximal activity concentration (AC50) under setting [2] is 0.206 µM [rising, single point].

Take `COc1cc2ccccc2cc1C(=O)N1CCOCC1`: the cell number change was -7.68%. In addition, the half-maximal activity concentration (AC50) under setting [2] is 0.00461 µM [rising, full curve, poor fit].

As to `COn1c(SCc2ccccc2)nc2ccccc2c1=O`, the cell number change was found to be 30.6%. Further, the concentration at half-maximal activity (AC50) under setting [1] is 29.1 µM [rising, single point]. The AC50 under setting [2] was 32.6 µM [falling, single point].
